This is one part of the list.
Legend:
Experiment in all cases: log2 fold change, soluble protein after heating vs DMSO (PISA); higher = thermal stabilisation; K562 lysate, 10 uM; active = over 0.2 and 3.5 SD of the protein, either way, in both replicates (recomputed)
erlotinib = compound: C#Cc1cccc(Nc2ncnc3cc(OCCOC)c(OCCOC)cc23)c1 [erlotinib]
Procedure, shortened: (§1)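 Quantification was by TMTpro 16plex LC-MS/MS with equalised channel sums, applied to the supernatant after 21,000xg for 90 min. Samples were crude K562 extract at 1 mg/mL protein in PBS pH 7.4 with 1 mM MgCl2, treated with 10 μM compound for 30 min, heated for 3 min across 48°C-58°C, pooled and brought to 0.5% NP-40 at 4°C. Values are log-two fold changes in thermal stability relative to solvent controls, from duplicates.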

The chains behind the UniProt entries cited, without tags or fusion partners. Where a name states a change or a piece, a line headed by the entry shows the natural chain unless it says otherwise.
UniProt Q9NZ72: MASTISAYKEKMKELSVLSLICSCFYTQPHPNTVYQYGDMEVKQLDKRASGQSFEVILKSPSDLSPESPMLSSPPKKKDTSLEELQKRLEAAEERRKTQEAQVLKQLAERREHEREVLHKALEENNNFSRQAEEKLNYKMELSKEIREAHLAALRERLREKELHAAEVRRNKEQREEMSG
UniProt P57105: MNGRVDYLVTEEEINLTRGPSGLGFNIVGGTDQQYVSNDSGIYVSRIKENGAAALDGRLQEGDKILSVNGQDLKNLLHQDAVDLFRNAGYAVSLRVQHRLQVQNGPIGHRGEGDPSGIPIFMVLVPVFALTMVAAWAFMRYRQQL
UniProt Q8TCJ2: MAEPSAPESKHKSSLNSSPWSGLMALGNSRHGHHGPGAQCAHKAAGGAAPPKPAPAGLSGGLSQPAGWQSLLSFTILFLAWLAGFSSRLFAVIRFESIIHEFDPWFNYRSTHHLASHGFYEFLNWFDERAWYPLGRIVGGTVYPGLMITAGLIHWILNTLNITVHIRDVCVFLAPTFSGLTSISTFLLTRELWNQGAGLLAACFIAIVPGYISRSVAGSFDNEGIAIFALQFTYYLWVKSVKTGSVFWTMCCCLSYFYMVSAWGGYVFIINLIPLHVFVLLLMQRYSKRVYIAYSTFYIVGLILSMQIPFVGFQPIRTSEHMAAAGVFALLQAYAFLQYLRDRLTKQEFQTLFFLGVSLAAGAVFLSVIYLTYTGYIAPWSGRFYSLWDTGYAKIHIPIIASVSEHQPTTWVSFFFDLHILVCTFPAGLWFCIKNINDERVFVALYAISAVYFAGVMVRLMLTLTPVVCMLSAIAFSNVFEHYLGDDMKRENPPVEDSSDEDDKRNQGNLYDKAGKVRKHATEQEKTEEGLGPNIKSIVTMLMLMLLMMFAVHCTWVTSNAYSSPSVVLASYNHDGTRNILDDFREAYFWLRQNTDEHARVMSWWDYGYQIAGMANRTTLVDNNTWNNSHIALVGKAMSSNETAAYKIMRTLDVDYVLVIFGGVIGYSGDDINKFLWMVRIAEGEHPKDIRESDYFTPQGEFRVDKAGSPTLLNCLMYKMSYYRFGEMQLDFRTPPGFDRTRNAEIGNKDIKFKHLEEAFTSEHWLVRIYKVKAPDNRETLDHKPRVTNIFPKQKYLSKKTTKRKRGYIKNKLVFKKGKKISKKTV
UniProt Q8N1F8: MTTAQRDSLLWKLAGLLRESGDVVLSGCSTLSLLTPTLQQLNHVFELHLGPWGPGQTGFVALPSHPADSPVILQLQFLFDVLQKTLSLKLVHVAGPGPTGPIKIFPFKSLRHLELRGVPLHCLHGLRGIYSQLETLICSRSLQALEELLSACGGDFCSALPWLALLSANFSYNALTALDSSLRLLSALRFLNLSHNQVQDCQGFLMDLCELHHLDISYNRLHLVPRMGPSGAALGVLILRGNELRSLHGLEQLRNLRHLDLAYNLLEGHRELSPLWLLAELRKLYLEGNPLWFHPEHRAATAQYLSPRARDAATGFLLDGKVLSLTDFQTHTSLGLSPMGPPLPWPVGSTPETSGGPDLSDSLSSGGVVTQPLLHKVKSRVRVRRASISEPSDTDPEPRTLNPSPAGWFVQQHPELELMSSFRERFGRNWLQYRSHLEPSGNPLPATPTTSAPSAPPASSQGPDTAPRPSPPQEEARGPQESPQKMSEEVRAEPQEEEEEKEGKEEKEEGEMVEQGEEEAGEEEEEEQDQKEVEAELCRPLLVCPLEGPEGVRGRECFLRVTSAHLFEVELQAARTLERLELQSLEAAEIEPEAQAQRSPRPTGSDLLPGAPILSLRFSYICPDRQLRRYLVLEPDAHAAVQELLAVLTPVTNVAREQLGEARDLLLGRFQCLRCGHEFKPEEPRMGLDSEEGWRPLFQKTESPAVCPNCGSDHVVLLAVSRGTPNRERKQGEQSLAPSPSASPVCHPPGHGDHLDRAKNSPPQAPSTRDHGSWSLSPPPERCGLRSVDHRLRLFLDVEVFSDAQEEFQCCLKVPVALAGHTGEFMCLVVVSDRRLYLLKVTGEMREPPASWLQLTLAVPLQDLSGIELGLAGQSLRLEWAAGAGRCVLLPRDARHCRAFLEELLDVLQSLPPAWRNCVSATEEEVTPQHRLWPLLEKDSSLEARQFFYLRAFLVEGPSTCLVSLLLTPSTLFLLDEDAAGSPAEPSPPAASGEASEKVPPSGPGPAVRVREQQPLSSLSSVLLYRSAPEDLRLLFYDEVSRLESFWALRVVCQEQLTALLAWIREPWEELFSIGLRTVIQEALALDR
UniProt O95926: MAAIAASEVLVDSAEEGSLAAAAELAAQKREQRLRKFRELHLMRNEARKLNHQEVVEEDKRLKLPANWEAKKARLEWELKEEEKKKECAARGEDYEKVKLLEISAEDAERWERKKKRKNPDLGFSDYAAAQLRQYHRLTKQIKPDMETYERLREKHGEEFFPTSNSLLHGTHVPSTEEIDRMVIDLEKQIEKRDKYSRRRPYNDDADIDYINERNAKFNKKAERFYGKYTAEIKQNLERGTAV

[1] = compound: C/C(=N\NC(=O)C1=CC(=CC=C1)S(=O)(=O)N2CCOCC2)/C3=C(C=CC(=C3)Cl)O
Procedure, shortened: as §1

[2] = compound: C1=CC(=CC=C1C2=NC3=C(N2)C=C(C=C3)C(=O)N)OC4=CC=C(C=C4)Cl
Procedure, shortened: as §1

[3] = compound: C1=CC2=C(C=CC(=C2)/C=C\3/C(=O)NC(=NCC4=CC=CS4)S3)N=C1
Procedure, shortened: as §1

[4] = compound: C1=CC2=NC=CN=C2C=C1/C=C/3\C(=O)NC(=O)S3
Procedure, shortened: as §1

[5] = compound: C1=CC=C(C=C1)C2=NC(=C(N2)C3=CC=NC=C3)C4=CC(=C(C=C4)Cl)O
Procedure, shortened: as §1

[6] = compound: C1=CC=C2C(=C1)C3=NNC4=CC=CC(=C43)C2=O
Procedure, shortened: as §1

[7] = compound: C1CCN(C1)C(=O)NC2=CC=CC(=C2)NC3=NC=C(C(=N3)NCCC4=CN=CN4)Br
Procedure, shortened: as §1

[8] = compound: C1CN(CCC1(CC2=CC=C(C=C2)Cl)N)C3=NC=NC4=C3C=CN4
Procedure, shortened: as §1

IRAK-1-4 Inhibitor I = compound: C1COCCN1CCN2C3=CC=CC=C3N=C2NC(=O)C4=CC(=CC=C4)[N+](=O)[O-] [IRAK-1-4 Inhibitor I]
Procedure, shortened: as §1

ibrutinib = compound: C=CC(=O)N1CCC[C@@H](n2nc(-c3ccc(Oc4ccccc4)cc3)c3c(N)ncnc32)C1 [ibrutinib]
Procedure, shortened: as §1

[9] = compound: CC(=O)c1cnc2ccc(-c3cc(Cl)c(O)c(Cl)c3)nc2c1N[C@H]1CC[C@H](CN(C)C)CC1
Procedure, shortened: as §1

ralimetinib = compound: CC(C)(C)Cn1c(N)nc2ccc(-c3[nH]c(C(C)(C)C)nc3-c3ccc(F)cc3)nc21 [ralimetinib]
Procedure, shortened: as §1

[10] = compound: CC(C)(O)CC(=O)NCCn1ccc2ncnc(Nc3ccc(Oc4cccc(C(F)(F)F)c4)c(Cl)c3)c21
Procedure, shortened: as §1

[11] = compound: CC(C)C1=C2N=C(C=C(N2N=C1)NCC3=CC=CC=C3)NCCCCCCN
Procedure, shortened: as §1

[12] = compound: CC1=C(C(CC(=O)N1)C2=CC=C(C=C2)C(F)(F)F)C(=O)NC3=C(C=C4C(=C3)C=NN4)F
Procedure, shortened: as §1

[13] = compound: CC1=C(C2=C(C=C1)C(=O)C3=CC=CC=C3N2CCCN)C
Procedure, shortened: as §1

[14] = compound: CC1=C(C=C(C=C1)NC(=O)C2=CC(=CC=C2)C(C)(C)C#N)NC3=CC4=C(C=C3)N=CN(C4=O)C
Procedure, shortened: as §1

[15] = compound: CC1=C(C=C(C=C1)NC(=O)C2=CC(=CC=C2)N(C)C)NC(=O)C3=CC=C(C=C3)O
Procedure, shortened: as §1

[16] = compound: CC1=CC=C(C=C1)SC2=C3C=C(SC3=CN=C2)C(=O)N
Procedure, shortened: as §1

Measured: log2 fold change

STMN3 (UniProt Q9NZ72)
inactive: erlotinib 0.012 | [1] 0.01 | [2] -0.003 | [3] -0.122 | [4] -0.062 | [5] -0.026 | [6] 0.043 | [7] -0.097 | [8] 0.091 | IRAK-1-4 Inhibitor I -0.006 | ibrutinib 0.006 | [9] -0.028 | ralimetinib 0.093 | [10] 0.025 | [11] -0.089 | [12] -0.003 | [13] -0.059 | [14] 0.012 | [15] -0.011 | [16] 0.009

SYNJ2BP (UniProt P57105)
inactive: erlotinib -0.017 | [1] 0.011 | [2] -0.008 | [3] 0.062 | [4] -0.03 | [5] -0.013 | [6] -0.158 | [7] -0.088 | [8] -0.044 | IRAK-1-4 Inhibitor I -0.065 | ibrutinib 0.185 | [9] 0.026 | ralimetinib 0.006 | [10] 0 | [11] -0.009 | [12] 0.051 | [13] -0.03 | [14] -0.095 | [15] 0.002 | [16] -0.042

SUPT6H (UniProt Q7KZ85)
inactive: erlotinib 0.006 | [1] 0.036 | [2] 0 | [3] -0.016 | [4] -0.021 | [5] 0.005 | [6] -0.015 | [7] -0.08 | [8] 0.04 | IRAK-1-4 Inhibitor I -0.005 | ibrutinib 0.023 | [9] -0.037 | ralimetinib 0.006 | [10] -0.057 | [11] -0.028 | [12] -0.008 | [13] -0.036 | [14] 0.022 | [15] 0.014 | [16] -0.005

STK39 (UniProt Q9UEW8)
inactive: erlotinib 0.006 | [1] 0.08 | [2] -0.001 | [3] -0.014 | [4] -0.03 | [5] 0 | [6] -0.133 | [7] -0.004 | [8] -0.013 | IRAK-1-4 Inhibitor I -0.003 | ibrutinib -0.114 | [9] 0.011 | ralimetinib 0.012 | [10] -0.041 | [11] -0.015 | [12] 0.007 | [13] -0.045 | [14] -0.02 | [15] 0.037 | [16] -0.019

STT3B (UniProt Q8TCJ2)
inactive: erlotinib 0.007 | [1] 0.032 | [2] -0.006 | [3] 0.014 | [4] -0.031 | [5] -0.026 | [6] -0.061 | [7] 0.006 | [8] -0.045 | IRAK-1-4 Inhibitor I -0.009 | ibrutinib -0.059 | [9] -0.026 | ralimetinib 0.01 | [10] -0.048 | [11] -0.018 | [12] 0.001 | [13] 0.015 | [14] 0.02 | [15] 0.044 | [16] 0.012

STK11IP (UniProt Q8N1F8)
inactive: erlotinib 0.015 | [1] 0.008 | [2] -0.002 | [3] -0.071 | [4] 0.007 | [5] -0.007 | [6] 0.025 | [7] -0.029 | [8] 0.033 | IRAK-1-4 Inhibitor I 0.053 | ibrutinib -0.016 | [9] -0.024 | ralimetinib 0.044 | [10] -0.055 | [11] 0 | [12] 0.046 | [13] 0.024 | [14] -0.009 | [15] 0 | [16] 0.015

SUPT5H (UniProt O00267)
inactive: erlotinib 0.002 | [1] 0.025 | [2] 0.018 | [3] 0.015 | [4] -0.005 | [5] -0.004 | [6] -0.012 | [7] -0.012 | [8] 0.014 | IRAK-1-4 Inhibitor I -0.032 | ibrutinib -0.006 | [9] -0.012 | ralimetinib -0.001 | [10] 0.007 | [11] 0.002 | [12] -0.012 | [13] -0.001 | [14] -0.009 | [15] 0.003 | [16] 0.002

SYF2 (UniProt O95926)
inactive: erlotinib 0 | [1] 0.043 | [2] 0.037 | [3] -0.025 | [4] -0.015 | [5] 0.037 | [6] 0.063 | [7] -0.048 | [8] 0 | IRAK-1-4 Inhibitor I -0.057 | ibrutinib 0.094 | [9] 0.023 | ralimetinib -0.019 | [10] 0.001 | [11] -0.02 | [12] -0.027 | [13] -0.122 | [14] 0.037 | [15] 0.066 | [16] -0.061

Reference: the supplement of paper PMC10849652
